# Laboratory results from the supplement of paper PMC6411743.
# ± gives the standard deviation of the averaged measurements. The list shows a part of the results.
# Columns and labels:
# Assay in all cases: NP40-soluble protein abundance relative to vehicle (solubility fold change) (ratio); higher = more soluble protein in presence of GTP
# PLD3 = target: T1, PLD3 (UniProt Q8IV08)
# T1 sequence (whole entry): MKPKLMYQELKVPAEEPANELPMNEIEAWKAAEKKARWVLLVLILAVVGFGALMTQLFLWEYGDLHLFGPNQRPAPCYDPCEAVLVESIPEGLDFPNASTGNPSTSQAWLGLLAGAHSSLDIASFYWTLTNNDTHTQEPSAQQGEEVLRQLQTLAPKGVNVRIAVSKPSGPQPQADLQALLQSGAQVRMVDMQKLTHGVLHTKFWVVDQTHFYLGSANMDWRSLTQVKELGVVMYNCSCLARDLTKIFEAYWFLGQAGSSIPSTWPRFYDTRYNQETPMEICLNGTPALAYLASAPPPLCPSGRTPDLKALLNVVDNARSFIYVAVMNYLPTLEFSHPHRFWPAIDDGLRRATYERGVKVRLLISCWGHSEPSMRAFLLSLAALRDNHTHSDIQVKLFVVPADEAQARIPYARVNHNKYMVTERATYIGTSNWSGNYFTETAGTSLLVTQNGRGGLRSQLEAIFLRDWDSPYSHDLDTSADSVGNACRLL
# Method in brief: (§1)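 Each value is a fold change relative to the detergent-processed vehicle, calculated per replicate from vsn-normalised intensities. Jurkat crude lysate received eight concentrations (0.1 to 10 mM) for 10 min at room temperature and 3 min at 37 °C, then was solubilised in 0.8% NP40 with benzonase (60 min, 4 °C). The ultracentrifuged supernatant was TMT-labelled and run by LC-MS/MS in three independent experiments.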
# RBM15B = target: T2, RBM15B (UniProt Q8NDT2)
# T2 sequence (whole entry): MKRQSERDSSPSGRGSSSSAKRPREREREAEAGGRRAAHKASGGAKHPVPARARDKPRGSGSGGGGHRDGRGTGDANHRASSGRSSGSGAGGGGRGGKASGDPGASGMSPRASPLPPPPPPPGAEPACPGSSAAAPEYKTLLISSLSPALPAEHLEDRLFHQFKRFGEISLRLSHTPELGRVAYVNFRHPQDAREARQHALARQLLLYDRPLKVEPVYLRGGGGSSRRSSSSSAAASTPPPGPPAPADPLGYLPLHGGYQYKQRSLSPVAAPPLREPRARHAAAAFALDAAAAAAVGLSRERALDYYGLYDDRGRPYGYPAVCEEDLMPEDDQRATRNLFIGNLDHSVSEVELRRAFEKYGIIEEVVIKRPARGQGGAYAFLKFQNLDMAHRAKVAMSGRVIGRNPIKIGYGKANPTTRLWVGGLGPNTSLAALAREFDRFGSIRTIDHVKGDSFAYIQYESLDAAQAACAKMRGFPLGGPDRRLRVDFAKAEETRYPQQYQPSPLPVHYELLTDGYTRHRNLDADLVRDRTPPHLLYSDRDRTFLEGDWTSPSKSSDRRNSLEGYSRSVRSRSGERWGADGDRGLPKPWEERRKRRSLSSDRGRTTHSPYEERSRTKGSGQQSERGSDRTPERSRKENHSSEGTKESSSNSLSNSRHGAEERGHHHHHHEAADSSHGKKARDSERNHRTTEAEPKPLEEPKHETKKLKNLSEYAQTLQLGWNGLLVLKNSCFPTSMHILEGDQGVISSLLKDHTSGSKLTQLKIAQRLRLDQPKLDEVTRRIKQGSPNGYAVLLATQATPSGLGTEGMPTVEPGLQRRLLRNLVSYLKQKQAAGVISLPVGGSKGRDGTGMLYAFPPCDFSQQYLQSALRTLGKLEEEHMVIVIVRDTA
# Method in brief: as §1
# SPATS2 = target: T3, SPATS2 (UniProt Q86XZ4)
# T3 sequence (whole entry): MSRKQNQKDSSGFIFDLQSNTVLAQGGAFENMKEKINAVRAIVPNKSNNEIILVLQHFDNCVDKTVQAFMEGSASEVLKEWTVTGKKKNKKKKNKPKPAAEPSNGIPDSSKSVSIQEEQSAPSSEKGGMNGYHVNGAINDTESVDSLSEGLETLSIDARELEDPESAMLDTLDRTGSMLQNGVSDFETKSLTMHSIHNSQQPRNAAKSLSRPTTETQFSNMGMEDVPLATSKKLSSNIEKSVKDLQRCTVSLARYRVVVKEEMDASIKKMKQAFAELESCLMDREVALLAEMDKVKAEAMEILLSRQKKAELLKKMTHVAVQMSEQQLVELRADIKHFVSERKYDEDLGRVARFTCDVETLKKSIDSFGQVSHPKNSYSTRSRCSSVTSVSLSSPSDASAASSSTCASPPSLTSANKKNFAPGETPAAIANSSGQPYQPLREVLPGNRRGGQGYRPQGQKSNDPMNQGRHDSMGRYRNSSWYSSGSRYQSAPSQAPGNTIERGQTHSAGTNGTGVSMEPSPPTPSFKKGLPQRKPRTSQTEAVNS
# Method in brief: as §1
# TBC1D10C = target: T4, TBC1D10C (UniProt Q8IV04)
# T4 sequence (whole entry): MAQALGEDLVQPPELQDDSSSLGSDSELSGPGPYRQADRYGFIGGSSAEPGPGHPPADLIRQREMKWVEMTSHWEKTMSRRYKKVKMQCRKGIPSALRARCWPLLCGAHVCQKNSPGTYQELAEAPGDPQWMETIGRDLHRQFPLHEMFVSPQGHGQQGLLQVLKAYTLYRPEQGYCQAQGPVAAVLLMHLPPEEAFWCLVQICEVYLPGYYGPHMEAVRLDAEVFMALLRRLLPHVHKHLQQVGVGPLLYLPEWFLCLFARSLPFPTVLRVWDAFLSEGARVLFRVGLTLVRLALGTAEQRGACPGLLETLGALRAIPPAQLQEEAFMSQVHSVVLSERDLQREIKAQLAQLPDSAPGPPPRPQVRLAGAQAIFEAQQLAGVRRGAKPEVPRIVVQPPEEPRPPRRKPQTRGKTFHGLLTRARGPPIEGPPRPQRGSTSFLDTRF
# Method in brief: as §1
# TTC9C = target: T5, TTC9C (UniProt Q8N5M4)
# T5 sequence (whole entry): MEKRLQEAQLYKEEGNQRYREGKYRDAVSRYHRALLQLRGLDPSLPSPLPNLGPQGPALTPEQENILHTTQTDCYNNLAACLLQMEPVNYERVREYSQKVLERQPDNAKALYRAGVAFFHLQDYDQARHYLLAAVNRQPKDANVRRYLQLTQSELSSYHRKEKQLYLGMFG
# Method in brief: as §1
# [1] = target: T6, UniProt Q8IWR0 and related entries
# T6 sequence (whole entry): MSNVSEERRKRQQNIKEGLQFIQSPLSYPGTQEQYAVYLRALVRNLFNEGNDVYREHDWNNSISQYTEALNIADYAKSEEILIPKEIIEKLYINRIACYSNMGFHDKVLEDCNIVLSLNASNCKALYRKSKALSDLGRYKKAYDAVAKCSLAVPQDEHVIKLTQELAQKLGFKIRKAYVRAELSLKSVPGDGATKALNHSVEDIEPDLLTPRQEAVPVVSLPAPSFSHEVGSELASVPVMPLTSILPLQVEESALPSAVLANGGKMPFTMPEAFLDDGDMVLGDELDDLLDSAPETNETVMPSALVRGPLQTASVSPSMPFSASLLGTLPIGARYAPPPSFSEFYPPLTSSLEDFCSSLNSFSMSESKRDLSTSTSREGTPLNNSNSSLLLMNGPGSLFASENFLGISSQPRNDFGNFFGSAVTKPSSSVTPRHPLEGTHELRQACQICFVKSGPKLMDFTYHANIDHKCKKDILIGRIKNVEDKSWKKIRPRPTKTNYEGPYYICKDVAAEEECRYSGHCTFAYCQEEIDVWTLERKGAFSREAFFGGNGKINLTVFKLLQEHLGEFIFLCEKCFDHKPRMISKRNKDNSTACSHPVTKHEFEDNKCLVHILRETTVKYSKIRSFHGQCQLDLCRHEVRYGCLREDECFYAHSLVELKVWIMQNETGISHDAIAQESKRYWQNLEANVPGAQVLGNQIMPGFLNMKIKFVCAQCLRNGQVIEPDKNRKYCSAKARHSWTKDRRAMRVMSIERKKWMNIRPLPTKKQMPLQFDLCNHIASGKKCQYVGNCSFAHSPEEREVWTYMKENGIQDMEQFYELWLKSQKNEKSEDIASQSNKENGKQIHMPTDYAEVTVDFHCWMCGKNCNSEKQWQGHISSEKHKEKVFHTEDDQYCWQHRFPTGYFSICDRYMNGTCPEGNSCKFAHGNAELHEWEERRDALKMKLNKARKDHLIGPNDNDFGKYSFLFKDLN
# Method in brief: as §1
structure (smiles),measurement,setting,value
Nc1nc2c(ncn2[C@@H]2O[C@H](COP(=O)(O)OP(=O)(O)OP(=O)(O)O)[C@@H](O)[C@H]2O)c(=O)[nH]1 [guanosine triphosphate],NP40-soluble protein abundance,PLD3; concentration: 1mM,0.929 ± 0.026
same,NP40-soluble protein abundance,PLD3; concentration: 2mM,0.8918 ± 0.0076
same,NP40-soluble protein abundance,PLD3; concentration: 4mM,1.01 ± 0.069
same,NP40-soluble protein abundance,PLD3; concentration: 6mM,0.895 ± 0.042
same,NP40-soluble protein abundance,PLD3; concentration: 8mM,0.872 ± 0.048
same,NP40-soluble protein abundance,PLD3; concentration: 10mM,0.889 ± 0.026
same,NP40-soluble protein abundance,RBM15B; concentration: 0.1mM,1.02 ± 0.012
same,NP40-soluble protein abundance,RBM15B; concentration: 0.5mM,1.09 ± 0.033
same,NP40-soluble protein abundance,RBM15B; concentration: 1mM,1.09 ± 0.04
same,NP40-soluble protein abundance,RBM15B; concentration: 2mM,1.19 ± 0.032
same,NP40-soluble protein abundance,RBM15B; concentration: 4mM,1.2 ± 0.068
same,NP40-soluble protein abundance,RBM15B; concentration: 6mM,1.28 ± 0.062
same,NP40-soluble protein abundance,RBM15B; concentration: 8mM,1.3 ± 0.11
same,NP40-soluble protein abundance,RBM15B; concentration: 10mM,1.37 ± 0.096
same,NP40-soluble protein abundance,SPATS2; concentration: 0.1mM,1.05 ± 0.19
same,NP40-soluble protein abundance,SPATS2; concentration: 0.5mM,0.927 ± 0.11
same,NP40-soluble protein abundance,SPATS2; concentration: 1mM,0.916 ± 0.16
same,NP40-soluble protein abundance,SPATS2; concentration: 2mM,1.01 ± 0.08
same,NP40-soluble protein abundance,SPATS2; concentration: 4mM,1 ± 0.19
same,NP40-soluble protein abundance,SPATS2; concentration: 6mM,0.988 ± 0.025
same,NP40-soluble protein abundance,SPATS2; concentration: 8mM,1.11 ± 0.17
same,NP40-soluble protein abundance,SPATS2; concentration: 10mM,1.12 ± 0.042
same,NP40-soluble protein abundance,TBC1D10C; concentration: 0.1mM,1.05 ± 0.11
same,NP40-soluble protein abundance,TBC1D10C; concentration: 0.5mM,0.936 ± 0.067
same,NP40-soluble protein abundance,TBC1D10C; concentration: 1mM,1.01 ± 0.032
same,NP40-soluble protein abundance,TBC1D10C; concentration: 2mM,1.08 ± 0.097
same,NP40-soluble protein abundance,TBC1D10C; concentration: 4mM,1.005 ± 0.0028
same,NP40-soluble protein abundance,TBC1D10C; concentration: 6mM,0.976 ± 0.065
same,NP40-soluble protein abundance,TBC1D10C; concentration: 8mM,1.07 ± 0.055
same,NP40-soluble protein abundance,TBC1D10C; concentration: 10mM,1 ± 0.11
same,NP40-soluble protein abundance,TTC9C; concentration: 0.1mM,0.996 ± 0.1
same,NP40-soluble protein abundance,TTC9C; concentration: 0.5mM,1.06 ± 0.097
same,NP40-soluble protein abundance,TTC9C; concentration: 1mM,0.925 ± 0.13
same,NP40-soluble protein abundance,TTC9C; concentration: 2mM,0.917 ± 0.07
same,NP40-soluble protein abundance,TTC9C; concentration: 4mM,0.961 ± 0.16
same,NP40-soluble protein abundance,TTC9C; concentration: 6mM,1.02 ± 0.089
same,NP40-soluble protein abundance,TTC9C; concentration: 8mM,1.08 ± 0.033
same,NP40-soluble protein abundance,TTC9C; concentration: 10mM,1.07 ± 0.085
same,NP40-soluble protein abundance,[1]; concentration: 0.1mM,1.06 ± 0.094
same,NP40-soluble protein abundance,[1]; concentration: 0.5mM,0.985 ± 0.043
same,NP40-soluble protein abundance,[1]; concentration: 1mM,1.07 ± 0.077
same,NP40-soluble protein abundance,[1]; concentration: 2mM,1.1 ± 0.052

# Already shown: entries from further up.
structure (smiles),measurement,setting,value
Nc1nc2c(ncn2[C@@H]2O[C@H](COP(=O)(O)OP(=O)(O)OP(=O)(O)O)[C@@H](O)[C@H]2O)c(=O)[nH]1 [guanosine triphosphate],NP40-soluble protein abundance,TTC9C; concentration: 10mM,1.07 ± 0.085
same,NP40-soluble protein abundance,[1]; concentration: 0.1mM,1.06 ± 0.094
